Patent US20060217305A1, “Induction of tumor cell senescence by retinoid receptor agonists and antagonists” (Ordway Research Institute, Inc., priority 2005, published 2006)
Further values from the same series stand in other lists.

Tested on: MCF-7 cells, human transcripts
Assay: Affymetrix U133 2.0 Plus microarray analysis of gene expression
Format: cell-based
Conditions: LGD1550 100 nM, 24, 48 or 72 hrs
Description: FIG. 4 depicts microarray analysis of changes in gene expression in MCF-7 cells treated with RAR agonist LGD1550 or RAR antagonist LG100815, plotted using GeneSpring software. The X axis represents different time points of treatment with RAR ligands (0 point correspond to cells cultured for 3 days with DMSO carrier).
To determine the effects of the RAR agonist and antagonist on the expression of essentially all the human genes, MCF-7 cells were treated with 100 nM of RAR agonist LGD1550 or 10 μM of RAR antagonist LG100815, concentrations that provide maximal induction of gene expression according to Q-PCR assays (as discussed above). Cells were treated for 24, 48 or 72 hrs, and total RNA from the untreated or treated cells was isolated using Qiagen's RNeasy Total RNA Isolation Kit. For gene expression profiling, RNA samples were provided to the microarray service facility of the Wadsworth Center Genomics Institute, which carried out biotinylated target preparation and hybridization with Affymetrix U 133 2.0 Plus oligonucleotide microarrays containing 56,000 probe sets representing 48,500 human transcripts. The hybridization signals were normalized using GCRMA procedure and analyzed using GeneSpring software (Silicone Genetics). […] The effects of the agonist and the antagonist also agreed with the results of the earlier analysis of the effects of RA on MCF-7 cells, with all 13 genes previously shown by RT-PCR to be induced in that system (Dokmanovic et al., 2002) also showing induction in the present microarray analysis (FIG. 4b).
RNA or protein products of genes that are induced to a similar level by both the RAR agonist and the RAR antagonist can be used as reporters in screening for compounds with properties similar to LG0100815. RNA or protein products of genes from this group (or promoter constructs for such genes) can be used as reporters in screening for compounds that mimic the effect of retinoids. Table 3, as shown below, lists a set of 508 genes chosen as preferred reporters. These genes were selected by being strongly (at least 2-fold) induced by both the agonist and the antagonist relative to untreated cells and showing no more than two-fold difference between their induction by the agonist and the antagonist. 62 genes listed at the top of Table 3 are particularly preferred reporters, as they are most strongly (at least 4-fold) induced by both the agonist and the antagonist. Table 4, as shown below, lists a set of 53 genes that can be used as preferred markers to discriminate between RARE-dependent and RARE-independent induction of transcription. These genes were chosen by being induced at least 3-fold by the agonist relative to untreated cells and also showing at least 4 times stronger induction by the agonist than by the antagonist. FIG. 6 plots the maximal fold induction of gene expression produced by the agonist versus that produced by the antagonist for the genes listed in Table 3 (particularly preferred reporters only) and in Table 4, with the corresponding trend lines. The relative effects of a tested compound on the genes in Table 3 and Table 4 should indicate whether the compound behaves as a RAR agonist or RAR antagonist. For example, one can select matching pairs of genes from Table 3 and Table 4 that are induced by the agonist to approximately the same degree. A compound that mimics the effects of the agonist should induce such genes to a similar level, whereas a compound that behaves like an antagonist should induce the gene from Table 3 to a much greater degree than the gene from Table 4.

SMILES: CC(/C=C/C=C(\C)c1cc(C(C)(C)C)cc(C(C)(C)C)c1)=C\C(=O)O [LGD1550]
- AK024898 227306_at fold induction, maximal effect of agonist: 11.73 fold
- AW510657 228904_at fold induction, maximal effect of agonist: 10.13 fold
- BF221547 227088_at fold induction, maximal effect of agonist: 26.46 fold
- CEACAM1 209498_at fold induction, maximal effect of agonist: 39.62 fold
- CEACAM1 211883_x_at fold induction, maximal effect of agonist: 4.51 fold
- CP 204846_at fold induction, maximal effect of agonist: 67.09 fold
- CYP1A1 205749_at fold induction, maximal effect of agonist: 7.33 fold
- CYP26B1 219825_at fold induction, maximal effect of agonist: 179.84 fold
- ChGn 219049_at fold induction, maximal effect of agonist: 13.08 fold
- FLJ10901 219010_at fold induction, maximal effect of agonist: 4.05 fold
- FLJ11127 219694_at fold induction, maximal effect of agonist: 22.82 fold
- FLJ32115 227450_at fold induction, maximal effect of agonist: 173.10 fold
- GBP1 202269_x_at fold induction, maximal effect of agonist: 5.99 fold
- GPX2 202831_at fold induction, maximal effect of agonist: 38.21 fold
- HOXA13 231786_at fold induction, maximal effect of agonist: 4.87 fold
- IFI44L 204439_at fold induction, maximal effect of agonist: 7.95 fold
- IFIT4 229450_at fold induction, maximal effect of agonist: 16.59 fold
- KDR 203934_at fold induction, maximal effect of agonist: 8.75 fold
- KIAA1359 231941_s_at fold induction, maximal effect of agonist: 11.07 fold
- LOC121838 232318_s_at fold induction, maximal effect of agonist: 28.28 fold
- LOC129607 226702_at fold induction, maximal effect of agonist: 6.01 fold
- LOC134548 230238_at fold induction, maximal effect of agonist: 5.56 fold
- LOC145757 1558649_at fold induction, maximal effect of agonist: 4.71 fold
- OAS2 228607_at fold induction, maximal effect of agonist: 7.28 fold
- PCSK2 204870_s_at fold induction, maximal effect of agonist: 6.32 fold
- PDE5A 206757_at fold induction, maximal effect of agonist: 16.48 fold
- PDE5A 1553175_s_at fold induction, maximal effect of agonist: 7.55 fold
- PDK4 225207_at fold induction, maximal effect of agonist: 4.76 fold
- RSAD2 213797_at fold induction, maximal effect of agonist: 7.54 fold
- SELE 206211_at fold induction, maximal effect of agonist: 4.54 fold
- TGFBI 201506_at fold induction, maximal effect of agonist: 53.01 fold
- TRIM31 208170_s_at fold induction, maximal effect of agonist: 35.70 fold
- TRIM31 210159_s_at fold induction, maximal effect of agonist: 17.09 fold
- HOXA1 214639_s_at fold induction, maximal effect of agonist (listed as agonist): 95.33 fold
